# In all, about 31,000 sequences went through this assay and about 1,400 (4.5%) were called active.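 How the source made its calls: active means median seed-adjusted z-score above 1 or below -1; inactive means the rest.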 Some of the results follow.
# Test: Novel Modifiers of Survival Motor Neuron (SMN) Protein: Gene Identification via Genome-wide siRNA Screen;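 further: luminescence tracks full-length SMN protein made from the SMN2 reporter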
# Settings: HEK293T SMN2-luciferase reporter, siRNA knockdown, 72 h; actives lie on both sides
# Outline: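 Steps: spot 1 pmol siRNA, add Lipofectamine RNAiMax in serum-free DMEM, seed HEK293T SMN2–luciferase reporter cells; incubate 72 h at 37 °C; add ONE-Glo; normalize luminescence to control siRNA, log10, MAD. Candidates: |MAD| > 1.0.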
row,Sequence,median seed-adjusted z-score
1,GCACAACUUACGUAACAGATT against MSH6,inactive: -0.182
2,AAAUCCAGGUGAACAUCCATT against CAPNS1,inactive: 0.35
3,GGAUAUUCACCUUGCGAAATT against SEL1L,inactive: 0.438
4,GAACUUGAGGGACAGAGUUTT against RANBP3,inactive: -0.211
5,CAUCAGAUCUUGAUCAGUUTT against NKTR,active: -1.1
6,CUUUGCUAGUGGAUUCAAATT against CDS1,inactive: 0.0208
7,CCCUGAAAUCUUUAACUUATT against TPST1,inactive: -0.00547
8,GCUACCCACAGAUUCAGAATT against ALX1,inactive: -0.556
9,GUAGCAGGGCUGAACCCAUTT against ZMAT5,inactive: 0.292
10,GGAUCGCACUCAUGUGGAATT against A4GALT,inactive: -0.286
11,CGAGGAGCGAGUGCUGAAATT against CREB3L3,inactive: -0.076
12,GGAAUGAAGCGUGUCCUGATT against KSR1,inactive: 0.0873
13,GAUCAUGCGUAACUACAGUTT against JUP,inactive: 0.15
14,GGAUAGAGGUUUCCAGUUUTT against CNBP,active: -1.14
15,CCAAAAUAGGGUCGAAUUATT against SQRDL,inactive: 0.455
16,GACCUUGAGUCAUGAUUCATT against ZNF582,inactive: -0.421
17,GAUCUUCGCUGUAACCCAATT against ITGB6,inactive: -0.5
18,CGGUGCCCGUGGAAAUGAUTT against SERPINF2,inactive: 0.629
19,GCCGGAAUCCUGAAACUCATT against NFATC1,inactive: 0.00712
20,GGACUUCACCGAGAACCCATT against GFRA2,inactive: 0.363
21,CCCGGAUACUUCUGAAGAATT against HNRPDL,inactive: -0.68
22,CCAAGACUAUGUAUCGAUUTT against RG9MTD3,inactive: -0.174

row,Sequence,median seed-adjusted z-score
1,GAGCCUUUGGGAAUAAAAATT against PTGER1,inactive: 0.383
2,GUAUACACGUACAUCCAAATT against DYRK4,inactive: -0.824
3,GGUGAGAUGCUAUGUGGAATT against ADPRHL1,inactive: 0
4,CCUCUACGCUACAACAAGATT against EBI2,inactive: -0.312
5,UUGUAGAAAUGGAUACUGATT against ATR,inactive: -0.217
6,GUACGGACCAUAAUAAUCATT against AUH,inactive: 0
7,CCCUCAAUAUGGUCAAGUATT against MYST1,inactive: 0
8,GAAAAACUCUGACUAAUGATT against B4GALT4,inactive: -0.0479
9,GCUCUGCUGUGGGCUACUATT against SLC31A2,inactive: 0.401
10,CGAUCAUUACCUCUCCAGATT against ARHGEF4,inactive: 0.332
11,GAAUUCGACCAGUAUUUGATT against SOX7,inactive: -0.387
12,GGGAUGAACUAGAUAGUAUTT against BRIP1,inactive: 0.312
13,GCAAUCAUUUGAAACUCCATT against CASP4,inactive: -0.564
14,CGAGUUCAUUCAUGACAUATT against SERPINF1,inactive: -0.145
15,GGCUGUACGAGUUAGCAAUTT against MYRIP,inactive: 0.141
16,CAGCAAUUCUGGGAAGCGATT against GPR65,inactive: -0.766
17,UGAAGUACUGGAUCCGUUATT against EBI3,inactive: -0.206
18,CAUCGGUACUUCAAGCGUATT against SLC7A1,inactive: 0.445
19,CAAUGACCCUAAUACGACATT against ST3GAL6,inactive: -0.548
20,CCUUUUAUAUAUUCUCGGATT against GPR75,inactive: 0
21,GAAAAAUGGUUAACAUGUUTT against FOXD1,inactive: -0.659
22,GAUGCUUGCUAAUCGAACATT against SEC23B,inactive: 0.48

row,Sequence,median seed-adjusted z-score
1,GGAUGACUCAGAGAUCUCATT against IPO4,inactive: -0.0188
2,GGACUGAACCUAAAGGCAUTT against KCNE1,inactive: -0.347
3,GGAGGUUCUAUCUACCAGATT against VDAC3,inactive: 0.646
4,CGGCUGAUGUUCUCGAAUUTT against BRD3,inactive: 0.633
5,CGAUCGUCUUCUGAUCAAATT against DPYSL2,inactive: -0.569
6,GGACGGACACGUUCAAGCATT against LRRC4B,inactive: 0.288
7,CAAGGACAACCACACAGAATT against FOXS1,inactive: 0
8,CGUGUUAGUGAAUAAAGUATT against ZNF771,inactive: 0.108
9,CCCACGAUAUCAUCACCAATT against SERPINA1,inactive: 0.00292
10,GACGAAUUCCUAUAAAGCUTT against CBLL1,inactive: -0.466
11,UGCAGAAACUUAAUAGCCATT against CITED1,inactive: 0
12,GGACAGUCAUUCAUUCCAATT against TENC1,inactive: 0.892
13,GCUUCUAUUUAGUCACGAATT against AKAP9,active: -1.22
14,GAAAUUCCACUGUAUCUAATT against COX7A2,inactive: -0.0808
15,CACCUACUUUGGAAAGAGATT against CNP,inactive: -0.116
16,GAAUAAGCCUUCGAAAAGATT against ACTG1,inactive: -0.227
17,AGUCCAACCUGGUGUCGCATT against REPIN1,inactive: -0.0614
18,GAGCAUGUUUUUACCCUUUTT against MGC17403,inactive: 0.204
19,AGAUGAGGAGUGUCGUCAATT against KLK13,inactive: 0.452
20,CCAUAUGUGGUGACACGUUTT against MAPK10,inactive: -0.0114
21,AGGGCUAUCUGGUAUCUGUTT against SNRPF,active: -2.66
22,GCCUUAAGGCAGUUCUUAUTT against CYTH3,inactive: 0.196

# A different layout for some results above.
row | Sequence | median seed-adjusted z-score
18 | CAUCGGUACUUCAAGCGUATT against SLC7A1 | inactive: 0.445
19 | CAAUGACCCUAAUACGACATT against ST3GAL6 | inactive: -0.548
20 | CCUUUUAUAUAUUCUCGGATT against GPR75 | inactive: 0
21 | GAAAAAUGGUUAACAUGUUTT against FOXD1 | inactive: -0.659
22 | GAUGCUUGCUAAUCGAACATT against SEC23B | inactive: 0.48
1 | GGAUGACUCAGAGAUCUCATT against IPO4 | inactive: -0.0188

# Remaining list, next part:

row,Sequence,median seed-adjusted z-score
1,GCAGAUGGUUAUAAGCACATT against GLA,inactive: -0.494
2,UCACAUGACCUUUGACUUUTT against LINGO4,inactive: 0.388
3,GCUCUAAUCUUGAACUUCATT against ZNF233,inactive: 0.59
4,CCUUGAUCCUCGACUGUAATT against COL5A1,inactive: -0.00475
5,GCAUGACCAUGAUUCGAGUTT against ST6GALNAC3,inactive: -0.205
6,GGCGAGUUGUUUACCCUUUTT against DKC1,inactive: -0.203
7,CAGAUGACUUCAGAACCAATT against KRT33B,inactive: 0.04
8,GGAUGCCGCAGUAUCGUAATT against DNAJA2,inactive: 0
9,GCAUCUAUGGUGAGACAUUTT against PPIC,inactive: 0.0824
10,GGGUUUGGAUAGGAUCAAUTT against PPP3CB,inactive: 0.0225
11,GCCCACAAUGACUCACAUATT against GLYCTK,inactive: 0.0328
12,CGGUAUCACGUGACAAUCATT against KLF16,inactive: 0.461
13,GAUGGAAGCUUACUAGAUUTT against TCF7L2,inactive: 0.189
14,GGCUGGACAUAUUCAAGGATT against LARP1,inactive: 0.251
15,CAGAUUACCUGUUUCGUGATT against NPC1,inactive: -0.195
16,UGAGAGUCCACGGCCCAUATT against TPSAB1,inactive: 0.197
17,GAACGGGUAGAUGAAAUUATT against METTL3,inactive: 0.261
18,GGAUGUUCGCGAUGGACAATT against MAP3K15,inactive: -0.315
19,CGGUGACUGCUUAUCAGAATT against T,inactive: -0.018
20,GUAUUGAAGUUAGAGUUGUTT against NKRF,inactive: -0.0368
21,CCAAUGGAACUAUCCGGAATT against IDH2,inactive: 0.0592
22,GGUCUAACUCAAUAAUGGATT against REV3L,inactive: 0.062

row,Sequence,median seed-adjusted z-score
1,GAAGCAGCUUGAAACCAGATT against COL22A1,inactive: 0.3
2,CAAAAGGACAAGAACAAUATT against TERF1,inactive: 0.0114
3,GCUAUCGACCAGUACAACATT against NPBWR1,inactive: 0.344
4,CCUCUACGCUACUACCUGATT against TSPYL2,inactive: 0.0187
5,GGACUAUCCUUGAGGCAAATT against ATP6AP2,inactive: -0.705
6,GUUUCAUCUGGGUUCGCUATT against SF3B3,active: -2.53
7,CGGCUAUCCUGAUGACAUUTT against MME,inactive: 0.129
8,AGCUGUACAAGUUCCCGGATT against SYT15,inactive: 0.0164
9,CCCUCACUAUCACGGUUAATT against ATP6V1B2,inactive: 0.24
10,CAAUCAUGAUCGCAGAGAATT against CHDH,inactive: 0.0241
11,GGCUUAUGGAUGACAUUUATT against NDUFS2,inactive: -0.388
12,CGGUAUCAUUACUGGAUAATT against LNPEP,inactive: -0.386
13,GCAUGGUAUUGGAAUAACUTT against CHEK1,active: -5.1
14,GAAACAGUGAGUUAAAGCATT against GPR44,inactive: -0.527
15,GACUGCAUCUUAGUCAACATT against ALG2,inactive: 0.631
16,AACUCAUCCUGAUGCCUAATT against PHC1,inactive: -0.615
17,CCAUGGAUAUGGAAACCCATT against ALPK3,inactive: 0.365
18,GGACUCCAGUGGUAGCUAUTT against AARS,inactive: 0
19,CGCUCUUAAAGAUGAGUUATT against SYK,inactive: 0.567
20,GAAACCCUAUUACGAUGAATT against SOX30,inactive: -0.167

# Reference: PubChem BioAssay AID1347426 (Functional Genomics Laboratory (NCATS/FGL), 2020)
